These are yes or no findings as the source states them, for the method shown. In cells and extracts the contact can be indirect. Some entries that bind do so weakly or less than the wild type.

What all share (assay): co-IP
One assay concerns the target TDP-43-GFP (UniProt Q13148).
The target in assay [1] is TDP-43, endogenous in SN56 cells (mouse (endogenous in SN56)) (UniProt Q921F2).
The target of assay [2] is HA-Sti1 (stress inducible phosphoprotein 1) (UniProt Q60864).

Take “Sti1 tagged with an HA epitope (mouse Sti1) (from UniProt Q60864 1-543)”: the binding result with TDP-43-GFP was “binds”. Take “Sti1, endogenous in SN56 cells (from UniProt Q60864 1-543)”: in assay [1], the binding result is given as “binds”.

As to “TDP-43 (transactive response element DNA/RNA binding protein of 43 kDa) (from UniProt Q13148 1-414)”, in assay [2], the binding entry was “binds”.

(Values after publication doi:10.1101/2020.10.08.331173.)
